Source: PubChem BioAssay AID1224826 (NIAID, 2016)

- Screen: 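Genes that change LPS-induced Tnf promoter activity in mouse macrophages when knocked down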 (primary screen)
- Cell system: RAW264.7 G9 macrophages from mouse bearing reporters for p65 (GFP) and the Tnf promoter (mCherry)
- Reagent: siRNA pool against mouse genes, 100 nM
- Time to read-out: 16 h of LPS stimulation, after 2 days of siRNA transfection
- Conditions: bacterial lipopolysaccharide (Salmonella minnesota R595), 10 ng/ml
- Measurement: 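Nuclear mCherry signal of the Tnf promoter reporter measured by imaging after background removal, scaled to each plate median and turned into robust z-scores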
- Scale: Tnf reporter robust z-score: higher = stronger Tnf promoter reporter signal after LPS
- Hit rule: 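a well counts as active at a score of -1.3 or below (Tlr4 knock-down control median) or above 3 (raised signal); controls and wells holding fewer than 50 cells are excluded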
- Calls: active = Tnf reporter clearly lowered or raised; inactive = no clear change in Tnf reporter
The whole screen tested about 17,000 reagents; shown is a random part of them. Of all reagents, about 1,110 (6.6%) got an active call. 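Active means lowered or raised reporter signal; replicate intensities are raw and not normalised per plate.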 The numbers tell different reagents against one gene apart. Further read-outs or replicates are left out here.

Ly6g6d #1
- Tnf reporter robust z-score: 0.81
- fewer than 50 cells in well: enough cells in well
- outcome: inactive

Ly6g6d #2
- Tnf reporter robust z-score: -1.84
- fewer than 50 cells in well: enough cells in well
- outcome: active

Sar1a
- Tnf reporter robust z-score: -0.25
- fewer than 50 cells in well: enough cells in well
- outcome: inactive

Elavl3
- Tnf reporter robust z-score: -0.49
- fewer than 50 cells in well: enough cells in well
- outcome: inactive

Taf8
- Tnf reporter robust z-score: 0.38
- fewer than 50 cells in well: enough cells in well
- outcome: inactive

Or6z6
- Tnf reporter robust z-score: 0.65
- fewer than 50 cells in well: enough cells in well
- outcome: inactive

Tspan10
- Tnf reporter robust z-score: -0.8
- fewer than 50 cells in well: enough cells in well
- outcome: inactive

Continued; the last 2 above are carried over.
Or6z6
- Tnf reporter robust z-score: 0.65
- fewer than 50 cells in well: enough cells in well
- outcome: inactive

Tspan10
- Tnf reporter robust z-score: -0.8
- fewer than 50 cells in well: enough cells in well
- outcome: inactive

Glra2
- Tnf reporter robust z-score: 1.34
- fewer than 50 cells in well: enough cells in well
- outcome: inactive

Ap4s1
- Tnf reporter robust z-score: -0.87
- fewer than 50 cells in well: enough cells in well
- outcome: inactive

Iqub
- fewer than 50 cells in well: fewer than 50 cells per well; well left out of calls
- outcome: inactive

Pdk4
- Tnf reporter robust z-score: -0.34
- fewer than 50 cells in well: enough cells in well
- outcome: inactive

Wdr86
- Tnf reporter robust z-score: 0.13
- fewer than 50 cells in well: enough cells in well
- outcome: inactive
